According to PubChem BioAssay AID1259415 (National Center for Advancing Translational Sciences (NCATS), 2018):
The whole screen tested about 410,000 compounds, of which about 18,000 (4.4%) were called active. Inconclusive results, whose numbers are uncertain, are shown with a selection of clear calls. No stated cut-off is given here; in the data, active means activity change below about -60%; inconclusive means no clear call, values can overlap the other calls; inactive means above about -39%.

assay: qHTS Assay for inhibitors of the human cytomegalovirus (HCMV); details: HFF cells, HCMV-luciferase reporter, 72 h; at 57.5 µM; active compounds read low
In short: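 Luciferase read-out from HCMV-luciferase-infected HFFs (MOI 1 PFU/cell) 72 h post infection at 37C; compounds added after 16 h cell attachment; activity normalized between buffer-only basal and Salinomycin (10uM) inhibitor controls.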
On the % scale 0 is the no-effect control and ±100 the full control effect.

| SMILES | activity change, negative = inhibition |
| --- | --- |
| O=C(Nc1nnc(-c2ccc3c(c2)CCCC3)o1)c1c(F)cccc1F | inconclusive: -46.4% |
| CCn1nc(C)cc1C(=O)N1CCCC(N2CCN(Cc3ccc4c(c3)OCO4)CC2)C1 (stereo not drawn) | inconclusive: -56.1% |
| Cc1csc(NC(=O)C2CCCO2)n1 (stereo not drawn) | inactive: 72.3% |
| COc1ccc(CN2C(=O)CCC2(C)c2nc3ccccc3[nH]2)cc1 (stereo not drawn) | inactive: 15.4% |
| COC(=O)c1ccc(OC)c(CN2C(=O)N(c3ccc(C(C)=O)cc3)S(=O)(=O)c3ccccc32)c1 | inconclusive: -41.9% |
| CN(CC(=O)Nc1ccccc1Cl)C(=O)COC(=O)/C=C/c1cccc(C(F)(F)F)c1 | inactive: -35.5% |
| Cc1ccc(S(=O)(=O)N(C)C)cc1NC(=S)NC(C)CCCC(C)C (stereo not drawn) | active: -73% |
| CCc1ccc(-c2cc(C(=O)N3N=C(C(F)F)CC3(O)C(F)F)c3ccccc3n2)cc1 (stereo not drawn) | active: -87.2% |
| CCN(CC)CCSc1nnc2c3cc(F)ccc3n(C)c2n1 | inconclusive: -58.2% |
| CCN(CC)CCNC(=O)c1ccc(Cl)c(S(=O)(=O)N2CCCCCC2)c1 | inconclusive: -55.2% |
| CC(=O)Nc1ccc(OCc2cccc3ccccc23)cc1 | active: -79.2% |
| S=C(NCc1cccnc1)Nc1ccc(Cl)cc1 | inconclusive: -40.5% |
| CCOc1ccc(-c2nc(CSCC(=O)NCc3ccco3)c(C)o2)cc1 | inconclusive: -43.2% |
| CCOC(=O)c1sc(NC(=O)Nc2ccccc2)cc1C | inactive: -24.3% |
| C=CCn1c(SCC(=O)NC23CC4CC(CC(C4)C2)C3)nc2cc(C(=O)O)ccc2c1=O | inconclusive: -50.2% |
| Cc1nonc1C(=O)N/N=C/c1ccccc1 | inconclusive: -47.3% |
| CCc1c(C)c(C#N)c2nc3ccccc3n2c1NCC1CCCO1 (stereo not drawn) | inactive: -39.6% |
| O=C(N/N=C/c1sc(N2CCCCC2)nc1-c1cccs1)c1cccnc1 | active: -80.6% |
| Cc1ccccc1CCNC(=O)c1ccc(Cl)c(S(=O)(=O)N2CC(C)OC(C)C2)c1 (stereo not drawn) | active: -88.4% |
| S=C(NCc1ccccc1)Nc1ccncc1 | inconclusive: -47.2% |
| CC(OC(=O)c1ccccc1NS(=O)(=O)c1cccc(C(F)(F)F)c1)C(=O)N(C)Cc1ccccc1 (stereo not drawn) | inconclusive: -53% |
| O=C(Cn1c(=O)n(CC2CS2)c2ccccc21)N1CCCCCC1 (stereo not drawn) | active: -69.9% |

| SMILES | activity change, negative = inhibition |
| --- | --- |
| O=C(c1ccccc1)N1CCC(=O)N1c1ccccc1 | inconclusive: -48.1% |
| CC1(C)Cc2ccccc2C(NNC(=O)c2ccccn2)=N1 | inconclusive: -49.4% |
| CCOC(=O)c1[nH]c2c(c1-c1ccccc1)C(=O)CC(c1ccc(OC)c(OC)c1)C2 (stereo not drawn) | inconclusive: -43.2% |
| CC(=O)c1ccc(NC(=O)CN(C)S(=O)(=O)c2cccc3nsnc23)cc1 | inactive: 1.91% |
| COc1ccccc1-c1cc2nc(C)c(CCC(=O)NCc3cccc(Cl)c3)c(C)n2n1 | inconclusive: -51.4% |
| Cc1nc(Nc2cccc(C(C)O)c2)c2nnn(Cc3ccc(F)cc3)c2n1 (stereo not drawn) | inconclusive: -57.7% |
| O=C(CC(C(=O)O)C1CCCO1)NCc1ccccc1 (stereo not drawn) | active: -101% |
| COc1cccc(C(C(=O)NC2CCCCC2)N(Cc2ccco2)C(=O)c2ccccn2)c1 (stereo not drawn) | inconclusive: -55.2% |
| COC(=O)CN1CCN(C(=O)c2ccc(F)cc2)c2ccccc2C1 | inconclusive: -48% |
| COc1ccc(Nc2nc(NCCO)nc(N3CCCC3)n2)cc1 | inconclusive: -46% |
| O=c1c(CN2CCN(c3ccccn3)CC2)coc2ccccc12 | inconclusive: -51.2% |
| COC(=O)COc1ccc(-c2nccc(-c3ccccn3)n2)cc1 | inconclusive: -49.4% |
| COc1ccc(-c2ccc(C(=O)Nc3ccc(OC)nc3)c3occc23)c(C)c1 | inconclusive: -45.2% |
| Cc1ccccc1C(=O)N1CCC(C(=O)N(C)CCOc2ccccc2)CC1 | inconclusive: -50.3% |
| Cc1cc(C)n2nc(C(=O)Nc3ccc(S(=O)(=O)N4CCCCC4)cc3)nc2n1 | inactive: -23.2% |
| O=S(=O)(c1ccccc1)N1CCN(CC2CC3C=CC2C3)CC1 (stereo not drawn) | active: -102% |
| O=C(CSc1nnc2c(Cl)cc(C(F)(F)F)cn12)N(Cc1ccccc1)Cc1ccccc1 | inconclusive: -48% |
| O=[N+]([O-])c1ccccc1/C=N/NC1=NCCCCC1 | inactive: -6.82% |
| O=C(Nc1cccc(Cl)c1)c1ccc(F)c(S(=O)(=O)N2CCC3(CC2)OCCO3)c1 | inactive: 0% |
| CCN(C(=O)Cn1nnc2sc(-c3ccccc3)cc2c1=O)c1cccc(C)c1 | inactive: 2.08% |
| N#C/C(=C\c1c(N2CCN(c3ccccc3)CC2)nc2ccccn2c1=O)C(N)=O | inconclusive: -40.1% |

Reprinted at random: three compounds from above

| SMILES | activity change, negative = inhibition |
| --- | --- |
| CCN(C(=O)Cn1nnc2sc(-c3ccccc3)cc2c1=O)c1cccc(C)c1 | inactive: 2.08% |
| COC(=O)CN1CCN(C(=O)c2ccc(F)cc2)c2ccccc2C1 | inconclusive: -48% |
| Cc1cc(C)n2nc(C(=O)Nc3ccc(S(=O)(=O)N4CCCCC4)cc3)nc2n1 | inactive: -23.2% |
